Data on one molecule can be found in PMC10618255, “Cryo-EM structure of human O-GlcNAcylation enzyme pair OGT-OGA complex” (Nature Communications, 2023).

In the assay the target is human OGT 4A mutant (W208A/L209A/I211A/H212A) (human) (UniProt O15294). Briefly: SEC + cryo-EM structure; OGT 4A mutant on size exclusion chromatography and in cryo-EM analysis (2D classification); both purified. A general note: Size exclusion chromatography separates by hydrodynamic size, large species first.

Results are given in words; binding and its absence hold for the method and conditions named.

B1: human OGT 4A mutant (W208A/L209A/I211A/H212A) (enzyme, UniProt O15294 1-1046)
chain: MASSVGNVADSTEPTKRMLSFQGLAELAHREYQAGDFEAAERHCMQLWRQEPDNTGVLLLLSSIHFQCRRLDRSAHFSTLAIKQNPLLAEAYSNLGNVYKERGQLQEAIEHYRHALRLKPDFIDGYINLAAALVAAGDMEGAVQAYVSALQYNPDLYCVRSDLGNLLKALGRLEEAKACYLKAIETQPNFAVAWSNLGCVFNAQGEIAAAAAHFEKAVTLDPNFLDAYINLGNVLKEARIFDRAVAAYLRALSLSPNHAVVHGNLACVYYEQGLIDLAIDTYRRAIELQPHFPDAYCNLANALKEKGSVAEAEDCYNTALRLCPTHADSLNNLANIKREQGNIEEAVRLYRKALEVFPEFAAAHSNLASVLQQQGKLQEALMHYKEAIRISPTFADAYSNMGNTLKEMQDVQGALQCYTRAIQINPAFADAHSNLASIHKDSGNIPEAIASYRTALKLKPDFPDAYCNLAHCLQIVCDWTDYDERMKKLVSIVADQLEKNRLPSVHPHHSMLYPLSHGFRKAIAERHGNLCLDKINVLHKPPYEHPKDLKLSDGRLRVGYVSSDFGNHPTSHLMQSIPGMHNPDKFEVFCYALSPDDGTNFRVKVMAEANHFIDLSQIPCNGKAADRIHQDGIHILVNMNGYTKGARNELFALRPAPIQAMWLGYPGTSGALFMDYIITDQETSPAEVAEQYSEKLAYMPHTFFIGDHANMFPHLKKKAVIDFKSNGHIYDNRIVLNGIDLKAFLDSLPDVKIVKMKCPDGGDNADSSNTALNMPVIPMNTIAEAVIEMINRGQIQITINGFSISNGLATTQINNKAATGEEVPRTIIVTTRSQYGLPEDAIVYCNFNQLYKIDPSTLQMWANILKRVPNSVLWLLRFPAVGEPNIQQYAQNMGLPQNRIIFSPVAPKEEHVRRGQLADVCLDTPLCNGHTTGMDVLWAGTPMVTMPGETLASRVAASQLTCLGCLELIAKNRQEYEDIAVKLGTDLEYLKKVRGKVWKQRISSPLFNTKQYTMELERLYLQMWEHYAAGNKPDHMIKPVEVTESA
Turning to B1, the binding result was “no binding”.
